# Reference: PMC7465474, “Interplay of Structural Disorder and Short Binding Elements in the Cellular Chaperone Function of Plant Dehydrin ERD14” (Cells, 2020)
# These are yes or no findings as the source states them, for the method shown. Binding seen in cells or lysates may run through a third protein. A yes stands for co-enrichment or nearness to the bait. Other partners may have been found.
# T1: Early Response to Dehydration 14 (ERD14) of A. thaliana, wild type, biotinylated in the cell (A. thaliana) (UniProt P42763)
# T1 sequence (chain, biotin (in-cell biotinylation)): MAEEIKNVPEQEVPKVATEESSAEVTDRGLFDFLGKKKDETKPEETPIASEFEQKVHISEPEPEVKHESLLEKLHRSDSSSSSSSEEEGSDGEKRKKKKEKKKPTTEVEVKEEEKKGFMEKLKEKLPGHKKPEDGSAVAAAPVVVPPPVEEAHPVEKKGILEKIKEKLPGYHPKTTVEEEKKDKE
# B1: citrate synthase (CS) (enzyme, UniProt P0ABH7 1-427)
# chain: MADTKAKLTLNGDTAVELDVLKGTLGQDVIDIRTLGSKGVFTFDPGFTSTASCESKITFIDGDEGILLHRGFPIDQLATDSNYLEVCYILLNGEKPTQEQYDEFKTTVTRHTMIHEQITRLFHAFRRDSHPMAVMCGITGALAAFYHDSLDVNNPRHREIAAFRLLSKMPTMAAMCYKYSIGQPFVYPRNDLSYAGNFLNMMFSTPCEPYEVNPILERAMDRILILHADHEQNASTSTVRTAGSSGANPFACIAAGIASLWGPAHGGANEAALKMLEEISSVKHIPEFVRRAKDKNDSFRLMGFGHRVYKNYDPRATVMRETCHEVLKELGTKDDLLEVAMELENIALNDPYFIEKKLYPNVDFYSGIILKAMGIPSSMFTVIFAMARTVGWIAHWSEMHSDGMKIARPRQLYTGYEKRDFKSDIKR
# Biological target: T1, Early Response to Dehydration 14 (ERD14) of A. thaliana, wild type, biotinylated in the cell (A. thaliana)
# Assay: affinity purification with mass spectrometry; biotin-ERD14 overexpressed in E. coli AVB101; cells cross-linked with 2 mM DSP at 30 °C for 7 min, without or with prior heat stress (50 °C × 15 min); after lysis pulled down with Streptavidin-MAG-Sepharose; SDS-PAGE, in-gel trypsin digest, LC-MS/MS; background from non-biotinylated ERD14
binder,measurement,value
B1,binding,binds
